{
  "sequences": {"note": "The chains behind the UniProt entries cited, without tags or fusion partners. Where a name states a change or a piece, a line headed by the entry shows the natural chain unless it says otherwise.", "UniProt Q7Z2W4": "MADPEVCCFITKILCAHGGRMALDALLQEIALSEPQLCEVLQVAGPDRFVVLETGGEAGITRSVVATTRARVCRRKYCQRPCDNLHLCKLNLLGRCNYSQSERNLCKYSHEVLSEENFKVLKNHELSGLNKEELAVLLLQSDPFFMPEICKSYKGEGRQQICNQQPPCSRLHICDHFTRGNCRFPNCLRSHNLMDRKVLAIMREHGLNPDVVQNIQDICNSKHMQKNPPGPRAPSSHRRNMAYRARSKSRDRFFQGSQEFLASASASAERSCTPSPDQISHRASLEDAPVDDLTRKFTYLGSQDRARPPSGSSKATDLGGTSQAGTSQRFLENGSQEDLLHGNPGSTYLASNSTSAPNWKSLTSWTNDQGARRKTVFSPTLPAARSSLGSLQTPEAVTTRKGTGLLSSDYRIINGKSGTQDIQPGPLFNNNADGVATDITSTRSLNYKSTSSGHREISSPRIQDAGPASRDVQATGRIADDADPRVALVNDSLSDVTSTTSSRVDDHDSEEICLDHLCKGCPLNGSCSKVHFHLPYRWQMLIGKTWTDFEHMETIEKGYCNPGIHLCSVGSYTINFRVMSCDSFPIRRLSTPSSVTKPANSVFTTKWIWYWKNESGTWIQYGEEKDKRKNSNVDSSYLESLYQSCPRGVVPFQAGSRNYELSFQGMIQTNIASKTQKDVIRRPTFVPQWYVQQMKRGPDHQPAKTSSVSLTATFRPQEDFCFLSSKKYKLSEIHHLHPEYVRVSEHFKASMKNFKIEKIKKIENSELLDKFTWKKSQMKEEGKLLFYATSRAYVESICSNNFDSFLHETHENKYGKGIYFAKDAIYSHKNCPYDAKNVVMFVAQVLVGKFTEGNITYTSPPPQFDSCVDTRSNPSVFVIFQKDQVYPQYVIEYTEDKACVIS", "UniProt O15015": "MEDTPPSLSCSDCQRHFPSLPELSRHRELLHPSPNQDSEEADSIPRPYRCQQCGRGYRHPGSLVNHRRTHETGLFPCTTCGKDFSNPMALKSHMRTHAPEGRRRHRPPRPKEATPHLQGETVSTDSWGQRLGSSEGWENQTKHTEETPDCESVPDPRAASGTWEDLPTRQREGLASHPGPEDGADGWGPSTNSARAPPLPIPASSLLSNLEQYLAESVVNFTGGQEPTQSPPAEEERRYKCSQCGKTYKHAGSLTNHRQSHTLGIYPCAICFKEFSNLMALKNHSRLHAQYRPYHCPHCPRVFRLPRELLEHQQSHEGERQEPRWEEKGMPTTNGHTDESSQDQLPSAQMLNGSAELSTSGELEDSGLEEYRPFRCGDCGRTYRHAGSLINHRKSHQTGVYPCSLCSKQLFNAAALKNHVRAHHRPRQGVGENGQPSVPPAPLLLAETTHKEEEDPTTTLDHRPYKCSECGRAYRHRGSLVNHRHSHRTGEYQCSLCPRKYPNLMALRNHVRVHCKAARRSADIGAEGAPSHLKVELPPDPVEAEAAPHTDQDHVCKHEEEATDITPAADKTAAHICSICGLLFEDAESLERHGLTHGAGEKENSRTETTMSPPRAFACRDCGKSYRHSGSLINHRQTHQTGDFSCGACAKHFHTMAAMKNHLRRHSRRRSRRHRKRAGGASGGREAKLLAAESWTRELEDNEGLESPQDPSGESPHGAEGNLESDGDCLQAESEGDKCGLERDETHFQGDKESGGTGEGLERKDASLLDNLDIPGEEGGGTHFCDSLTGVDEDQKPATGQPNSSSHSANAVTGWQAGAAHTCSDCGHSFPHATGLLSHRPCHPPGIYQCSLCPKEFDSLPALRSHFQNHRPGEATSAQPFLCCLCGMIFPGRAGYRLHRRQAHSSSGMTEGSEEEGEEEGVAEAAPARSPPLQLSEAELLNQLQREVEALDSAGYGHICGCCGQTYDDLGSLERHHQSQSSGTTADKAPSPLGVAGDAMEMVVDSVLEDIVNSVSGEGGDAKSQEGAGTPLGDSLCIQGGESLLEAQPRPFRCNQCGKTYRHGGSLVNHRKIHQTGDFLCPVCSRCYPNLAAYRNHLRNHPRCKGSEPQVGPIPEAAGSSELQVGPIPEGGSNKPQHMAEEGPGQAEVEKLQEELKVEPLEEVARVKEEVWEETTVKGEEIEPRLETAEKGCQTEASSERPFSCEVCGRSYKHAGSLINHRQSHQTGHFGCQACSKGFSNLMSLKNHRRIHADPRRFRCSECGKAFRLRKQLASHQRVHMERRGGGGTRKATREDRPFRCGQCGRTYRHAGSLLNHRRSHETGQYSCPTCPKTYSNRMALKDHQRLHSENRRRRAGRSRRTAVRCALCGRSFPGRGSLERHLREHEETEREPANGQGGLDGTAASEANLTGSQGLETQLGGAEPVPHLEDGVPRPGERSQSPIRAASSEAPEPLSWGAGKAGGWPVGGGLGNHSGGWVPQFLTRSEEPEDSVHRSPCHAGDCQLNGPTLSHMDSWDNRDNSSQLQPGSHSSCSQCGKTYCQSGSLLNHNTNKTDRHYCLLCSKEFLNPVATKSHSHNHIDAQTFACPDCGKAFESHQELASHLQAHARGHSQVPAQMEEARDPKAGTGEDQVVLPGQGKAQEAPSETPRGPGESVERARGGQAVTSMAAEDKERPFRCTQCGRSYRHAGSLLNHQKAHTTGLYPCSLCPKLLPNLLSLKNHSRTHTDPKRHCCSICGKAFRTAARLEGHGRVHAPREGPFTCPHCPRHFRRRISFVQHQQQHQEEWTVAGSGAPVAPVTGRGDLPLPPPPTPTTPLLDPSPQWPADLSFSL", "UniProt Q9Y4E5": "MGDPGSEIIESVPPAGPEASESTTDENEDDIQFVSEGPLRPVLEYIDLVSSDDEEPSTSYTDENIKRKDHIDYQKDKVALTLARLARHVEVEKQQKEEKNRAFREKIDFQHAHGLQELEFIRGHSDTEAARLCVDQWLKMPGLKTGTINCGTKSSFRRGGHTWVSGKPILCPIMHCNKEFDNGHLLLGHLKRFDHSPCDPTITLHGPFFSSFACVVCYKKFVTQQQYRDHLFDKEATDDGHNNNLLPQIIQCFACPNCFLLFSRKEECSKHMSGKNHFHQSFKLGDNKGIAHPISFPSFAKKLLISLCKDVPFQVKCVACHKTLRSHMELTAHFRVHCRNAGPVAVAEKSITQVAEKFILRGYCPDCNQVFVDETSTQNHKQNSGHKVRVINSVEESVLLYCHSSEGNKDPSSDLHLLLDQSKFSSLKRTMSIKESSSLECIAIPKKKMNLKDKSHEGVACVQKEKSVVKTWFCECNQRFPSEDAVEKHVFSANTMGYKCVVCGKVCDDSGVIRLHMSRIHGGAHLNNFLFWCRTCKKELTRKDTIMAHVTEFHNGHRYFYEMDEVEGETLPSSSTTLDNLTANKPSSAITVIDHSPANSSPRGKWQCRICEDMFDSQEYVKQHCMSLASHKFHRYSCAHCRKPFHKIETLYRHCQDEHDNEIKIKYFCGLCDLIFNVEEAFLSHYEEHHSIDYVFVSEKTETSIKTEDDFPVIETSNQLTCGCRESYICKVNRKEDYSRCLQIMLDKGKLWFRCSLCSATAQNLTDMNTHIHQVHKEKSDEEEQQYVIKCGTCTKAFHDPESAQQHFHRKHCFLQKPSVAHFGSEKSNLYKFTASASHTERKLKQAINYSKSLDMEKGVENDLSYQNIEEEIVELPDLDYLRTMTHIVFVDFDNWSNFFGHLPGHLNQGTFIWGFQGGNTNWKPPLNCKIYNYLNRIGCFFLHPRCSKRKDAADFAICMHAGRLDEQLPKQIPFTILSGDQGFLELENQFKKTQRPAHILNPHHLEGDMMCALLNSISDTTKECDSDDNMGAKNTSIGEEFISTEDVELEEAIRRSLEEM", "UniProt Q7Z7L7": "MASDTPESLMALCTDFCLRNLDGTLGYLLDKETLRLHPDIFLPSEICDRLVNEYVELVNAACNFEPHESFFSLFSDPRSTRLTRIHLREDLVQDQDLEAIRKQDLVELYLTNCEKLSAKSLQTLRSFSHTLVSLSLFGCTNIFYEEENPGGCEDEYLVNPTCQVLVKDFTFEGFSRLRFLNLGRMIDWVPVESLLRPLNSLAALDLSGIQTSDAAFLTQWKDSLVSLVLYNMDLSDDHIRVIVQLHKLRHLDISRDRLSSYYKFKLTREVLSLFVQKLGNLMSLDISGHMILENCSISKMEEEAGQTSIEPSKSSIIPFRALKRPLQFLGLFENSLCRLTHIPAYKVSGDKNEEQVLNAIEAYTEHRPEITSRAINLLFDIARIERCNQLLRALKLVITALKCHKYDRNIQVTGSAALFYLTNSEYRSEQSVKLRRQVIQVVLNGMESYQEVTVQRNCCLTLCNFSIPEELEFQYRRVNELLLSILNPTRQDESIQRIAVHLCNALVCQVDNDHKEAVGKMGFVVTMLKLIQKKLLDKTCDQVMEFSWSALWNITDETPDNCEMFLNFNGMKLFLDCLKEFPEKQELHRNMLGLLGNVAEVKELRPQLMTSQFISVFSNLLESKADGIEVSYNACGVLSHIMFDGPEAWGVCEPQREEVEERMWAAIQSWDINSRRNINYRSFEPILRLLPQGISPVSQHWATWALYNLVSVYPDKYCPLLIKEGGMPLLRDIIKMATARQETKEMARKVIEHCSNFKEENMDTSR", "UniProt Q96KM6": "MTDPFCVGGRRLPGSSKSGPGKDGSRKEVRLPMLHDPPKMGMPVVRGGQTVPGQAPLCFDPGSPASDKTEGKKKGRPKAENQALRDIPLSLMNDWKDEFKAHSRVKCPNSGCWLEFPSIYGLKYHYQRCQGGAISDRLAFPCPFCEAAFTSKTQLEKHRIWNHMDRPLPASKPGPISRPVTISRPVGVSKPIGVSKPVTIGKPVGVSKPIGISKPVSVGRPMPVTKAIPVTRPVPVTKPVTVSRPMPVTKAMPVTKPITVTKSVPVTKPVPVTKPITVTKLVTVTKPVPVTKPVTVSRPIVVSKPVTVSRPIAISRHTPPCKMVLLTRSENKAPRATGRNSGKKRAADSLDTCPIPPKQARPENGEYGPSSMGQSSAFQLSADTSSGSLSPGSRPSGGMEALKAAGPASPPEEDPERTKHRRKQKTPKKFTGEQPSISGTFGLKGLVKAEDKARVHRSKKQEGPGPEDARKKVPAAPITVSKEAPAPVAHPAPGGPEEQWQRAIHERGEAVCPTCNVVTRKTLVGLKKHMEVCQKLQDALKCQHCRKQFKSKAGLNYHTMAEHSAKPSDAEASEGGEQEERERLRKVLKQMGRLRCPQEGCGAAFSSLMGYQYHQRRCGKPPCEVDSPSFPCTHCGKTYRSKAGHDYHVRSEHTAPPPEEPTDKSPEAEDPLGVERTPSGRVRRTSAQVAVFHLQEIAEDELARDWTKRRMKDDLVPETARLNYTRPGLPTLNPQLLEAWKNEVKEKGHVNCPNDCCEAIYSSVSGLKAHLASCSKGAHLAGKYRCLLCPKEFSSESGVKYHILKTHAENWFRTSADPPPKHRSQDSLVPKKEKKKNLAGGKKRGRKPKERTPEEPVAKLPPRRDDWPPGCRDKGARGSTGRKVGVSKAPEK", "UniProt O75362": "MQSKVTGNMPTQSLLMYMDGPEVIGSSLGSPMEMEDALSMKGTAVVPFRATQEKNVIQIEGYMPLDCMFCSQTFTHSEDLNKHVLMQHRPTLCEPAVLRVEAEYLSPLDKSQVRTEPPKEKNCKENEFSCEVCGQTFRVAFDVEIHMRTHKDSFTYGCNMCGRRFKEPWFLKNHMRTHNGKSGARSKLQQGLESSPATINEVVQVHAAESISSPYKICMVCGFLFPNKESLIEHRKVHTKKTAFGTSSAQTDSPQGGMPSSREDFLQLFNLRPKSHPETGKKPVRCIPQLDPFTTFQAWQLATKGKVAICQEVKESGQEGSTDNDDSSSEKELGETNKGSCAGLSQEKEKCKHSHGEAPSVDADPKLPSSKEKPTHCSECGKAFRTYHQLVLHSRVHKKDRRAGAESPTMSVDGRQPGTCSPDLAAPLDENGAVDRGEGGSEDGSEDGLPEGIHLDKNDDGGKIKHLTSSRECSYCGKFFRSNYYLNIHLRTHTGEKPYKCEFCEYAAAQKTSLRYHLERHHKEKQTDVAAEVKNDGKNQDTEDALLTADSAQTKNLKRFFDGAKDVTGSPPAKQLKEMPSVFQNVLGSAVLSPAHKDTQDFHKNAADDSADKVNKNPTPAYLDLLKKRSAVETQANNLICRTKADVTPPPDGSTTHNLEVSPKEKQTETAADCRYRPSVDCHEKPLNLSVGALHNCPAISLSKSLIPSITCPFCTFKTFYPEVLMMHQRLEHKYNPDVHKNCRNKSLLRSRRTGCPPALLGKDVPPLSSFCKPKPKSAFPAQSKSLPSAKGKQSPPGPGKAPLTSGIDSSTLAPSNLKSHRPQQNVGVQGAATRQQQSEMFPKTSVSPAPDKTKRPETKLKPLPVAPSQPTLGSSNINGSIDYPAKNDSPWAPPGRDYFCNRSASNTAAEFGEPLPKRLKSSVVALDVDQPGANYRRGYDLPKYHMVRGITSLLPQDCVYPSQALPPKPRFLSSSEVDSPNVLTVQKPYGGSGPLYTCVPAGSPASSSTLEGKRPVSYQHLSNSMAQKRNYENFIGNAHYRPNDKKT"},
  "source": "the supplement of paper PMC11732987",
  "about": "“Enantioselective OTUD7B fragment discovery through chemoproteomics screening and high-throughput optimisation” (Communications Chemistry, 2025)",
  "note": "The list shows a part of the results. The data scatter; read single values as rough.",
  "data": [
    {"compound": "ClCC(=O)N[C@H]1CCCc2ccccc12", "experiment": "log2 mean competition ratio of IA-DTB cysteine labelling (DMSO/compound) (log2 ratio); higher = stronger cysteine engagement by compound", "conditions": "200 µM; treatment time: 4 h; cell line lysate: HEK293T", "description": "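IA-DTB competitive cysteine chemoproteomics in HEK293T RIPA lysate. Lysates were treated with compound 29 or 30 at 50 or 200 µM for 4 h, then IA-DTB (500 µM, 1 h), trypsin-digested, NeutrAvidin-enriched and analysed by diaPASEF. Competition ratio = intensity DMSO / intensity compound (n=4 treated, n=64 DMSO); binding: mean log2 CR ≥ 1 and p ≤ 0.05 plus QC filters. Target is the cysteine site.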", "values": [
      {"target": "ZC3HAV1 C645 (UniProt Q7Z2W4)", "log2 mean competition ratio": 0.118},
      {"target": "ZNF654 C732, A0A1B0GWA0", "log2 mean competition ratio": 0.0506},
      {"target": "ZNF646 C150 (UniProt O15015)", "log2 mean competition ratio": -0.068},
      {"target": "ZNF451 C441 (UniProt Q9Y4E5)", "log2 mean competition ratio": -0.0833},
      {"target": "ZNF805 C185", "log2 mean competition ratio": -0.00431},
      {"target": "ZER1 C113 (UniProt Q7Z7L7)", "log2 mean competition ratio": -0.101},
      {"target": "ZNF512B C533 (UniProt Q96KM6)", "log2 mean competition ratio": -0.199},
      {"target": "ZNF217 C641 (UniProt O75362)", "log2 mean competition ratio": 0.0716}
    ]}
  ]
}
